Results: patent US20220372014A1, “NEUROPROTECTIVE COMPOUNDS AND METHODS OF USE THEREOF” (The Johns Hopkins University, priority 2019, published 2022)
For some of these results: At least one structure is not confirmed: it was looked up by name or label, or the drawing left a doubt. Some entries share one result that the patent states for a list of compounds.

What was measured:
SH-SY5Y cells = assay: MNNG-induced parthanatic cell death in SH-SY5Y cells (Alamar blue cell viability); type: cell-based; details: individual compounds screening (FIG. 10F); 50 μM MNNG 15 min
Excerpt: We developed an assay to screen for PAAN/MIF nuclease inhibitors. Single-stranded PAAN/MIF nuclease DNA substrate (FIG. 10A) was amine modified on the 5′ end and immobilized on a plate. Hybridization with a biotin-labeled complementary oligonucleotide followed by addition of streptavidin conjugated horseradish peroxidase enzyme (HRP) leads to retention of HRP on the surface within each well in the presence of intact PAAN/MIF nuclease DNA substrate, which can be quantitatively detected through colorimetric change at 450 nm using the HRP substrate 3,3′,5,5′-tetramethylbenzidine (TMB). In the presence of WT PAAN/MIF, there is reduced signal, indicative of cleavage of the PAAN/MIF nuclease substrate, while the signal is not attenuated without recombinant PAAN/MIF (FIGS. 1 and 10B). […] Thus, the rapafucin library containing 45,000 macrocyclic compounds in 3,000 pools of 15 compounds was screened using this assay. […] Several pools were identified that inhibit PAAN/MIF nuclease activity from the primary screen (FIG. 4A). […] Nine pools of compounds were identified that both inhibit PAAN/MIF cleavage of the substrate and protect against MNNG-induced parthanatic cell death by greater than 70% (FIG. 10D). […] Next, the 90 individual compounds in the 6 pools were synthesized and further assessed for inhibition of PAAN/MIF nuclease activity and MNNG-induced parthanatic cell death. Among them 12 compounds (compounds 16-18, 26-28, 41, 56, 66, 67, 76, and 77) were identified that block MIF nuclease activity and MNNG-induced parthanatic cell death by greater than 60% (FIG. 10F). Dose dependence (0.1 to 1.0 μM) were assessed for the 12 compounds against MNNG-induced parthanatic cell death (FIG. 11A and Table 2) and inhibition of PAAN MIF nuclease activity against the RF (FIG. 111B) and PS30 substrates (FIG. 11C).
Cell culture, transfection, primary neuronal culture and treatment. SH-SY5Y cells (ATCC) were cultured in DMEM containing 10% fetal bovine serum and penicillin/streptomycin at 37° C. under 5% C02. The cells were transfected using PolyFect reagent (Qiagen). Parthanatos was induced by the treatment of 50 μM MNNG for 15 min in SH-SY5Y cells. ABT-888 or PAAN/MIF inhibitors were pretreated with indicated concentration 1 h before MNNG treatment and cell death were assessed after 24 h. Primary cortical neurons from WT, PAAN/MIF KO, E22Q KI or P1G KI embryos were prepared as previously described See Kam et al. (2018) Science 362:eaat8407. Briefly, the cortex was dissected and cultured at embryonic day 16 in neurobasal media supplemented with B-27, 0.5 mM L-glutamine, penicillin and streptomycin (Invitrogen). Primary neurons were infected with AAV2-control, AAV2-PAAN/MIF WT, AAV2-PAAN/MIF E22Q, AAV2-PAAN/MIF E22A or AAV2-MIF P1G (ViGene Biosciences) at days in vitro (DIV) 4-5. ABT-888 or PAAN/MIF inhibitors were applied to neurons 1 h before α-syn PFF treatment. The neuron growth medium was replaced with fresh medium alone or including inhibitors every 3-4 days. α-syn PFF was added at DIV 7 and further incubated for indicated times followed by the cell death assay or biochemical experiments.
Cell death and viability assessment. Primary cultured cortical neurons were treated with 5 μg/ml of α-syn PFF for 14 days and cell death was determined by staining of all nuclei with 7 μM Hoechst 33342 and dead cell nuclei with 2 μM propidium iodide (PI) (Invitrogen). The numbers of total and dead cells were counted with the Axiovision 4.6 software (Carl Zeiss). Cell viability was determined by fluorescence at an excitation wavelength 570 nm and an emission wavelength 585 nm using Alamar Blue (Invitrogen). […]

PAAN/MIF nuclease = target: T1, PAAN/MIF nuclease (Homo sapiens, UniProt P14174); assay: PAAN/MIF nuclease DNA cleavage colorimetric screening assay (immobilized RF substrate, absorbance at 450 nm); type: biochemical; details: individual compounds screening (FIG. 10F)
T1 construct: GST (N, cleaved yes); made in house; host or cells: Escherichia coli
T1 sequence (P14174 1-115): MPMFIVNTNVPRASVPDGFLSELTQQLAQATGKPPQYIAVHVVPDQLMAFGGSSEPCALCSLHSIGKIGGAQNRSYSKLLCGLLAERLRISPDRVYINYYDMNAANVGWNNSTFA

PAAN/MIF = target: T2, PAAN/MIF (Homo sapiens, UniProt P14174); assay: In vitro PAAN/MIF nuclease assay (PS30 or RF substrate, PAGE gel, noncleaved substrate DNA); type: biochemical; details: RF and PS30 substrates
T2 construct: GST (N, cleaved yes); made in house; host or cells: Escherichia coli
T2 sequence (P14174 1-115): T1 sequence (P14174 1-115)
Description: Nuclease assay. Purified PAAN/MIF protein (4 μM) was incubated with compounds (10 μM) in the nuclease buffer [10 mM Tris-C1 (pH 7.0) and 10 mM MgCl2] for 20 m on ice. Then samples were added with 1 μM of PAAN/MIF substrate (PS30 or RF) and incubated for 1 h at 37° C. The reaction was terminated with loading buffer containing 10 mM EDTA and separated on 15% TBE-urea polyacrylamide (PAGE) gel or 20% TBE PAGE gel.
Purification of PAAN/MIF recombinant proteins. Human PAAN/MIF (NM_002415) cDNA and its variants were subcloned into pGEX-6β-1 vector (GE Healthcare) and mutants were generated using a QuikChange site-directed mutagenesis kit (Stratagene). The sequences were confirmed by automated DNA sequencing. The protein was expressed and purified from Escherichia coli by glutathione sepharose (GE Healthcare). The GST tag was subsequently proteolytically removed. GST protein was used as a negative control in the nuclease assay and PAAN/MIF proteins purified by FPLC using Superdex 200 10/300GL column (GE Healthcare, Life Sciences) were also used in the nuclease assays.

Row | SMILES | block MNNG-induced parthanatic cell death (SH-SY5Y cells) | block MIF nuclease activity (PAAN/MIF nuclease) | inhibition of PAAN/MIF nuclease activity (PAAN/MIF)
1 | COc1ccc(CC[C@H]2OC(=O)[C@@H]3CCCCN3C(=O)C(=O)C(C)(C)COC(=O)C=CCCN(C)C(=O)[C@@H]3CCCN3C(=O)[C@H](COC(C)(C)C)N(C)C(=O)[C@H](Cc3ccc4ccccc4c3)NC(=O)[C@H](C)N(C)C(=O)COc3cccc2c3)cc1OC [compound 26] | greater than 60% | greater than 60% | –
2 | COc1ccc(CC[C@H]2OC(=O)[C@@H]3CCCCN3C(=O)C(=O)C(C)(C)COC(=O)C=CCCN(C)C(=O)[C@H](CC(C)C)NC(=O)[C@H](Cc3ccccc3)N(C)C(=O)[C@@H](C)NC(=O)CN(C)C(=O)COc3cccc2c3)cc1OC [compound 66] | greater than 60% | greater than 60% | –
3 | COc1ccc(CC[C@H]2OC(=O)[C@@H]3CCCCN3C(=O)C(=O)C(C)(C)COC(=O)C=CCCN(C)C(=O)[C@H](C)NC(=O)[C@H](COC(C)(C)C)N(C)C(=O)[C@H](Cc3ccc4ccccc4c3)NC(=O)[C@H](C)N(C)C(=O)COc3cccc2c3)cc1OC [compound 17] | greater than 60% | greater than 60% | –
4 | COc1ccc(CC[C@H]2OC(=O)[C@@H]3CCCCN3C(=O)C(=O)C(C)(C)COC(=O)C=CCCN(C)C(=O)[C@H](Cc3ccc4ccccc4c3)NC(=O)[C@H](COC(C)(C)C)N(C)C(=O)[C@H](Cc3ccc4ccccc4c3)NC(=O)[C@H](C)N(C)C(=O)COc3cccc2c3)cc1OC [compound 28] | greater than 60% | greater than 60% | –
5 | COc1ccc(CC[C@H]2OC(=O)[C@@H]3CCCCN3C(=O)C(=O)C(C)(C)COC(=O)C=CCCN(C)C(=O)[C@@H](C)NC(=O)[C@H](COC(C)(C)C)N(C)C(=O)[C@H](Cc3ccc4ccccc4c3)NC(=O)[C@H](C)N(C)C(=O)COc3cccc2c3)cc1OC [compound 18] | greater than 60% | greater than 60% | –
6 | COc1ccc(CC[C@H]2OC(=O)[C@@H]3CCCCN3C(=O)C(=O)C(C)(C)COC(=O)C=CCCN(C)C(=O)[C@H](CC3CCCCC3)NC(=O)[C@H](COC(C)(C)C)N(C)C(=O)[C@@H](Cc3ccc4ccccc4c3)NC(=O)[C@H](C)N(C)C(=O)COc3cccc2c3)cc1OC [compound 27] | greater than 60% | greater than 60% | –
7 | CO[C@H]1C[C@@H]2CC[C@@H](C)[C@@](O)(O2)C(=O)C(=O)N2CCCC[C@H]2C(=O)O[C@H]([C@H](C)C[C@@H]2CC[C@@H](O)[C@H](OC)C2)CC(=O)[C@H](C)/C=C(\C)[C@@H](O)[C@@H](OC)C(=O)[C@H](C)C[C@H](C)/C=C/C=C/C=C/1C [rapamycin, reference compound] | – | – | failed to inhibit
8 | C=CC[C@@H]1/C=C(\C)C[C@H](C)C[C@H](OC)[C@H]2O[C@@](O)(C(=O)C(=O)N3CCCC[C@H]3C(=O)O[C@H](/C(C)=C/[C@@H]3CC[C@@H](O)[C@H](OC)C3)[C@H](C)[C@@H](O)CC1=O)[C@H](C)C[C@@H]2OC [FK506, reference compound] | – | – | failed to inhibit
9 | COc1ccc(CC[C@H]2OC(=O)[C@@H]3CCCCN3C(=O)C(=O)C(C)(C)COC(=O)C=CCCN(C)C(=O)[C@@H](CC(C)C)NC(=O)[C@H](Cc3ccccc3)N(C)C(=O)[C@@H](C)NC(=O)CN(C)C(=O)COc3cccc2c3)cc1OC [compound 67] | greater than 60% | greater than 60% | –
